According to article PMC9270653:
No constants are given. Whether binding was seen depends on the method and setting. Binding seen in cells or lysates may run through a third protein. A yes stands for co-enrichment or nearness to the bait. Other partners may have been found.

Amino acid sequences for entries named in this document (tags omitted).
UniProt A2BH40: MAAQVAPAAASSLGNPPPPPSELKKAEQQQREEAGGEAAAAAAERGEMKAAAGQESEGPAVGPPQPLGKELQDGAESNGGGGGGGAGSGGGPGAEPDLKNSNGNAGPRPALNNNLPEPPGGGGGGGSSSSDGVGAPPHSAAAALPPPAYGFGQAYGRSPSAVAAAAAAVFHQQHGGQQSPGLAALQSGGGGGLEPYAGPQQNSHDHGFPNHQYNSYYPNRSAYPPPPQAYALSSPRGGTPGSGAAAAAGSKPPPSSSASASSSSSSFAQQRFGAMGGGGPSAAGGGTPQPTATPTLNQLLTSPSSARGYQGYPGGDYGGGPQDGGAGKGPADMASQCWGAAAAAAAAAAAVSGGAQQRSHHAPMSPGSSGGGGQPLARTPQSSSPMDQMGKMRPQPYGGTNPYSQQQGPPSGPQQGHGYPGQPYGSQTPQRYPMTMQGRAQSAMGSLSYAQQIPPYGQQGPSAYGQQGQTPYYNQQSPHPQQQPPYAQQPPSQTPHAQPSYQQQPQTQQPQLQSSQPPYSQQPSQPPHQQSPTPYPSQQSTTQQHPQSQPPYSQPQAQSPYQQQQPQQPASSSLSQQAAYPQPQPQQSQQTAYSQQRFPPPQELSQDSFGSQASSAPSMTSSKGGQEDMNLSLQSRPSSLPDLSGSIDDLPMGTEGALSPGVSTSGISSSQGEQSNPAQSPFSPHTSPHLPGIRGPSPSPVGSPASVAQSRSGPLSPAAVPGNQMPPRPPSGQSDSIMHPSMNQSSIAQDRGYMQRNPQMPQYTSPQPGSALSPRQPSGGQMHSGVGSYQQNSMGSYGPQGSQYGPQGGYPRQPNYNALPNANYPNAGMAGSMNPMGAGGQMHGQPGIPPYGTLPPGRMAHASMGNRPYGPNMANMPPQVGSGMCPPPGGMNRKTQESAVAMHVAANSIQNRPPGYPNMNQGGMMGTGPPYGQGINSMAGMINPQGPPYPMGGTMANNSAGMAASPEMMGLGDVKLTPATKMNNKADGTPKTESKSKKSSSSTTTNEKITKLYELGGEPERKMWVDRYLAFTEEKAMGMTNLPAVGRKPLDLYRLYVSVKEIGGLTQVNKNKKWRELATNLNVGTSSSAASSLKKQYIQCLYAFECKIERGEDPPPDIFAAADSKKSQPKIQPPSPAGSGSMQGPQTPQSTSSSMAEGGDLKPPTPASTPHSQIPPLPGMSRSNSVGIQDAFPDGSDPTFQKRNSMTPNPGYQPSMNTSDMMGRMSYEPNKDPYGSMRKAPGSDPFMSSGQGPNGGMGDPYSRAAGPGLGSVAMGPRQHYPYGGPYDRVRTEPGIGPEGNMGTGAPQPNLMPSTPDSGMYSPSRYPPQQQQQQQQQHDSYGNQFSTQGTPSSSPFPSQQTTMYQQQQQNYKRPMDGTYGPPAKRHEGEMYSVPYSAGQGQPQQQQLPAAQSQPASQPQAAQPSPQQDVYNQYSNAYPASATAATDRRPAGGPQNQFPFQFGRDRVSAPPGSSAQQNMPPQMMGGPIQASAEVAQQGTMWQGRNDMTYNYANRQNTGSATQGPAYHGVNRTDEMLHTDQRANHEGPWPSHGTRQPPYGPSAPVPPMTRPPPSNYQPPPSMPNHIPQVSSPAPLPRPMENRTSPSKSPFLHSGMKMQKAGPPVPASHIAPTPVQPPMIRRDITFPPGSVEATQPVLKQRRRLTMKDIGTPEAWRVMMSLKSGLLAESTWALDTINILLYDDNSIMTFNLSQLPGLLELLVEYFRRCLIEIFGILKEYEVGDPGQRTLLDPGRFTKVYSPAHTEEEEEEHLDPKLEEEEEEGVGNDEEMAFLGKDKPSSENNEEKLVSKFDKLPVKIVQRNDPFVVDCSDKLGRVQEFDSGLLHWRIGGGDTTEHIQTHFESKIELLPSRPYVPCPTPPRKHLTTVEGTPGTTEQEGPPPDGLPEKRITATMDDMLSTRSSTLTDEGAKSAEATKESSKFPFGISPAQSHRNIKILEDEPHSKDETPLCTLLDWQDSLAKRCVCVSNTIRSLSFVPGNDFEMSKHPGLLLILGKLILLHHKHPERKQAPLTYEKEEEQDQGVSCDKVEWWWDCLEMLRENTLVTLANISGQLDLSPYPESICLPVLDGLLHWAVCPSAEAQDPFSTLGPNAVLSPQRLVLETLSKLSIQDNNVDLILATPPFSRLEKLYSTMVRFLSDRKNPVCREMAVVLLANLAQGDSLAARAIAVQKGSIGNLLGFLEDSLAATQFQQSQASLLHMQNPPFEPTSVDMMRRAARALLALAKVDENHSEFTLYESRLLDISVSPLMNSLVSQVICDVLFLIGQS
UniProt Q8K019: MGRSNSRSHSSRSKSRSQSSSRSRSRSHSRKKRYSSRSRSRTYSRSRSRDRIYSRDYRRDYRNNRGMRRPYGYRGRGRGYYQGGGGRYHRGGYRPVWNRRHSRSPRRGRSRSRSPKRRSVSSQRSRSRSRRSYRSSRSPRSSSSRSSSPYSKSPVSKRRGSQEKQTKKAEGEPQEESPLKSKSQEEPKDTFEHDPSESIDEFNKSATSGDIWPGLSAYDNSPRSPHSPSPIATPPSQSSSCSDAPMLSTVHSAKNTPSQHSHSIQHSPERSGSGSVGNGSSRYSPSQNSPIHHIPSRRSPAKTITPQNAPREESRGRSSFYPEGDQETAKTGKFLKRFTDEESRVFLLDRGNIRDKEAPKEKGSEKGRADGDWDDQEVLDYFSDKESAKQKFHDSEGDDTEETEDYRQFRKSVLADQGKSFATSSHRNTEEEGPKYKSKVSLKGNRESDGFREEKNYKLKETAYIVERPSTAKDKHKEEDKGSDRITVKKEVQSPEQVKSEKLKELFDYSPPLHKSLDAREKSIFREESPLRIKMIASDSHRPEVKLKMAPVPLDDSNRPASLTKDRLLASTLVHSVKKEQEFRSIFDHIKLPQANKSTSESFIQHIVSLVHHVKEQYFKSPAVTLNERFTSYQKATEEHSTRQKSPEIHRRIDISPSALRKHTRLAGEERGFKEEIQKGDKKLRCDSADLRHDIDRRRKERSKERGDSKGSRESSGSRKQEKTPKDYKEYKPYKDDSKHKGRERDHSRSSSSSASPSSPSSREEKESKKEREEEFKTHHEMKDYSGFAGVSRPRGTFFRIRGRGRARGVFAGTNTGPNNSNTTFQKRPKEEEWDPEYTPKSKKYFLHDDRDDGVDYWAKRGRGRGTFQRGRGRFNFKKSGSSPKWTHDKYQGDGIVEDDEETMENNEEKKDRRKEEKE

Target: Arid1a (mouse (endogenous in mESCs)) (UniProt A2BH40)
Test: affinity purification with mass spectrometry; endogenous Arid1a immunoprecipitated from mESC nuclear lysate (lysis at 450 mM NaCl; IP at 150 mM or 450 mM NaCl, 1-2 h, 4°C) with antibody PSG3 on Protein G-Dynabeads; LC-MS of the digest

binding: binds
Substance: Bclaf1 (from UniProt Q8K019 1-919)
